Measured values as given in patent US10947289B2 (priority 2013, dated 2021).

Experiment: general procedure: Fmoc solid-phase peptide synthesis; 2-chlorotrityl chloride resin; HATU / N,N-diisopropylethylamine
Conditions: whole synthesis

2-[[(2R)-2-[[2-[[(2R)-2-[[2-[[(2R)-2-acetamido-3-sulfanylpropanoyl]amino]acetyl]amino]-3-sulfanylpropanoyl]amino]acetyl]amino]-3-sulfanylpropanoyl]amino]acetic acid
isolated mass (scale 0.25 mmol): 11 mg
isolated yield (scale 0.25 mmol): 16%

2-[[(2S)-2-[[2-[[(2S)-2-[[2-[[(2S)-2-amino-3-tert-butoxy-propanoyl]amino]acetyl]amino]-3-tert-butoxy-propanoyl]amino]acetyl]amino]-3-tert-butoxy-propanoyl]amino]acetic Acid
crude mass (scale 0.200 mmol): 120 mg
crude yield (scale 0.200 mmol): 97%
